## Results of single-concentration screens

Mtb cholesterol medium: 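Phenotypic screen: M. tuberculosis growth, cholesterol and DPPC medium, 4 days; the read-out is not stated. Tested at 50 µM. The record gives no direction; compounds that gave an IC50 in retests scored well above the rest, so higher reads as more growth inhibition. About 69,000 compounds were tested under these conditions; 0.54% (about 370) showed 50% or more at least once.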
Mtb glucose medium: 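Phenotypic screen: M. tuberculosis growth, glucose 7H9 medium, 3 days; the read-out is not stated. Concentration: 50 µM. Higher reads as more growth inhibition (inferred: compounds with an IC50 in retests scored well above the rest). About 69,000 compounds were tested under these conditions; 1.1% (about 760) showed 50% or more at least once.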

Values are the deposited “Percent Effect”, in %.
The controls that fix the scale are not given in the record; negative values are as filed.
The compounds are a random part of those screened.
Two or more numbers in one place are separate tests of the same structure; such repeats can differ widely.

| compound | Mtb cholesterol medium | Mtb glucose medium |
|---|---|---|
| `CC1CN(C(=O)c2cscn2)c2ccccc2S1` (configuration not stated) | -25.94% | -14.49% |
| `O=C(O)C[C@@H]1CCN(C(=O)C2CCCC2)C[C@@H]1CCN1CCCCC1` | 16.99% | -6.737% and 0.7248% |
| `CC(C)(C)n1nnnc1CN(CCc1ccccc1)Cc1ccccc1` | 3.372% | 4.422% |
| `CS(=O)(=O)c1ccc(NC(=O)CSc2ccc3c(c2)CCC3)cc1` | -19.16% | -37.08% and -1.411% |
| `[H][C@@]12C[C@H](C)O[C@]1([H])CCN(C(=O)C1=CCCCC1)C2` | -8.865% | -0.977% |
| `CN(Cc1ccco1)Cc1ccccc1CNC(=O)c1cc[nH]n1` | 16.52% | 0.2078% |
| `CC(CNC(=O)c1ccc(=O)[nH]n1)N1CCc2ccccc21` (configuration not stated) | -17.23% | -20.11% |
| `N#Cc1cccc(OCC(=O)N(Cc2ccsc2)C2CC2)c1` | 2.696% | -9.163% |
| `N#Cc1ccc(N2CCCC(CO)(CCOc3ccccc3)C2)nc1` (configuration not stated) | 9.642% and -4.832% | -16.79% |
| `CCc1nc(C2CCCN(C(=O)c3ccc(F)cc3)C2)no1` (configuration not stated) | -1.099% | 14.78% |
| `COC(=O)c1cccn1C1CCN(CCN2C(=O)CCC2=O)CC1` | -9.749% | -6.257% |
| `CN(CC(=O)NC(Cc1ccccc1)C1CCCC1)S(C)(=O)=O` (configuration not stated) | 15.86% | 19.27% |
| `CCOCC1CN(S(C)(=O)=O)Cc2cnn(C)c21` (configuration not stated) | -0.6109% | 12.8% |
| `CCNC(=O)CN(CC)Cc1nc2c(F)cccc2n1CC` | -2.569% | 0.3913% |
| `CC(C)CNC(=O)CNC(=O)NCC(O)c1ccc2ccccc2c1` (configuration not stated) | -16% | -7.4% |
| `COc1cc(CNCC2CNc3ccnn3C2)ccn1` (configuration not stated) | -4.304% | 10.85% |
| `CC(C)NC(=O)NCCCOC1CCOCC1` | -28.76% | -29.33% |
| `Cc1noc(C)c1-c1cccc(C2CN(S(=O)(=O)N(C)C)CCO2)n1` (configuration not stated) | 3.398% and 2.613% | -0.3191% |
| `COc1c(NC(=O)N(C)CCOc2ccc(F)cc2)c(C)nn1C` | -5.137% | 2.002% and -6.904% |
| `Cc1nccn1-c1cc(CNC(=O)C2CCC(=O)N2)ccn1` (configuration not stated) | 5.932% and -0.8835% | -27.6% |
| `Cc1cc(CN2CCCC(Cn3cncn3)C2)on1` (configuration not stated) | -14.39% | -42.41% |
| `Cn1cccc1C(=O)N1Cc2c(CN3CCCCC3)nn(C)c2C1` | 11.74% | 4.402% |
| `O=C(c1ccc2[nH]nnc2c1)N1CCCC(n2cccn2)C1` (configuration not stated) | 1.196% | 46.66% |
| `CN1CCC(N(Cc2ccncc2)C(=O)COCC2CCCCO2)CC1` (configuration not stated) | -4.586% | 2.627% |
| `N#Cc1ccc(CNCCS(=O)(=O)N2CCc3ccccc32)cc1` | 0.8932% | 14.25% |
| `Cc1noc(C)c1CC(=O)N1CCCN(Cc2cscn2)CC1` | -12.82% | 3.23% |
| `CSc1c[nH]nc1NS(=O)(=O)c1ccc(C)c(C)c1` | -7.107% | 41.1% |
| `CC(=O)N1CCC1c1cc(NC2CCOCC2)nc(C)n1` (configuration not stated) | -3.328% and 4.634% | 15.31% |
| `Cc1ccc(C)c(OCCN(C)C(=O)CCc2cn[nH]c2)c1` | 4.636% | 10.35% |
| `COCCOCC(=O)N1CCC2(CCCN(C3CCOCC3)C2=O)C1` (configuration not stated) | -23.98% | -22.3% |
| `CC(=O)Nc1cccc(OCCNC(=O)N(C)Cc2ccco2)c1` | 1.602% | 6.629% and 14.78% |
| `Cn1cc(C(C)(O)CNC(=O)c2ccc(Br)s2)cn1` (configuration not stated) | -26.02% | -29.48% |
| `O=C(C1CC=CC1)N1CCC2(CC1)OCCO2` | -2.163% | -7.303% |
| `COc1cc(C(=O)NC(C)C)nc2c(C)cc(F)cc12` | 29.34% | 44.91% |
| `[H][C@@]12CCCO[C@]1([H])[C@H](N(C)Cc1cccnc1)CN2c1ncc(F)cn1` | -20.88% | -2.673% |
| `O[C@H]1CC[C@@H](Cc2cc(-c3ccc(F)cc3)on2)O[C@@H]1CNCC1CC1` | -6.019% | 11.15% and 1.044% |
| `CN(CC(O)CO)c1nc(-c2cccnc2)nc2c1CCNC2` (configuration not stated) | -10.72% | -29.71% |
| `[H][C@@]12CN(CCOC)C[C@]1([H])[C@H](OC)CCN2Cc1ccc(C)o1` | -16.45% | 7.829% |
| `[H][C@@]12C[C@@H](Oc3cccnc3)CN1CCN(C(=O)c1ccnnc1)C2` | -9.448% | -0.6141% |
| `COCCCC1(CO)CCCN(CCc2ccccc2)C1` (configuration not stated) | -1.835% | -3.81% and -7.937% |
| `Cc1cc(NC(=O)C(C)N2CCN(c3nc(C)ns3)CC2)on1` (configuration not stated) | -7.783% | -11.96% |
| `Cc1ncc(CN2CCCC(c3cc(C(N)=O)[nH]n3)C2)s1` (configuration not stated) | -11.88% | 18.94% and -2.938% |
| `COc1ccc(C(=O)Nc2nncs2)cn1` | -33.24% | -28.91% |
| `CCC(C(=O)N1CCCN(CCN(C)C)CC1)N1CCCC1=O` (configuration not stated) | -9.549% | 0.9585% |

The last 3 entries again:

| compound | Mtb cholesterol medium | Mtb glucose medium |
|---|---|---|
| `Cc1ncc(CN2CCCC(c3cc(C(N)=O)[nH]n3)C2)s1` (configuration not stated) | -11.88% | 18.94% and -2.938% |
| `COc1ccc(C(=O)Nc2nncs2)cn1` | -33.24% | -28.91% |
| `CCC(C(=O)N1CCCN(CCN(C)C)CC1)N1CCCC1=O` (configuration not stated) | -9.549% | 0.9585% |

Source: ChEMBL document CHEMBL3988442, “University of Dundee, Small-Polar-MMV Screening Library” (2021).